± gives the standard deviation of the averaged measurements. The entries are a selection whose mix differs from that of the whole data set.
Compound: Nc1ncnc2c1ncn2[C@@H]1O[C@H](COP(=O)(O)OP(=O)(O)OP(=O)(O)O)[C@@H](O)[C@H]1O [adenosine triphosphate]
Test: NP40-soluble protein abundance relative to vehicle (solubility fold change) (ratio); higher = more soluble protein in presence of ATP
Details: concentration: 1mM
How it was run: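 In three independent experiments, Jurkat crude lysate made by Dounce homogenisation was treated for 10 min at room temperature and then 3 min at 37 °C with eight concentrations ranging from 0.1 to 10 mM. It was then solubilised with 0.8% NP40 plus benzonase for 60 min at 4 °C and ultracentrifuged. The supernatant was TMT-labelled for LC-MS/MS, and each value is the fold change against the detergent-processed vehicle for the same replicate, using vsn-normalised intensities.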

The chains behind the UniProt entries cited, without tags or fusion partners. Where a name states a change or a piece, a line headed by the entry shows the natural chain unless it says otherwise.
UniProt Q8TCY9: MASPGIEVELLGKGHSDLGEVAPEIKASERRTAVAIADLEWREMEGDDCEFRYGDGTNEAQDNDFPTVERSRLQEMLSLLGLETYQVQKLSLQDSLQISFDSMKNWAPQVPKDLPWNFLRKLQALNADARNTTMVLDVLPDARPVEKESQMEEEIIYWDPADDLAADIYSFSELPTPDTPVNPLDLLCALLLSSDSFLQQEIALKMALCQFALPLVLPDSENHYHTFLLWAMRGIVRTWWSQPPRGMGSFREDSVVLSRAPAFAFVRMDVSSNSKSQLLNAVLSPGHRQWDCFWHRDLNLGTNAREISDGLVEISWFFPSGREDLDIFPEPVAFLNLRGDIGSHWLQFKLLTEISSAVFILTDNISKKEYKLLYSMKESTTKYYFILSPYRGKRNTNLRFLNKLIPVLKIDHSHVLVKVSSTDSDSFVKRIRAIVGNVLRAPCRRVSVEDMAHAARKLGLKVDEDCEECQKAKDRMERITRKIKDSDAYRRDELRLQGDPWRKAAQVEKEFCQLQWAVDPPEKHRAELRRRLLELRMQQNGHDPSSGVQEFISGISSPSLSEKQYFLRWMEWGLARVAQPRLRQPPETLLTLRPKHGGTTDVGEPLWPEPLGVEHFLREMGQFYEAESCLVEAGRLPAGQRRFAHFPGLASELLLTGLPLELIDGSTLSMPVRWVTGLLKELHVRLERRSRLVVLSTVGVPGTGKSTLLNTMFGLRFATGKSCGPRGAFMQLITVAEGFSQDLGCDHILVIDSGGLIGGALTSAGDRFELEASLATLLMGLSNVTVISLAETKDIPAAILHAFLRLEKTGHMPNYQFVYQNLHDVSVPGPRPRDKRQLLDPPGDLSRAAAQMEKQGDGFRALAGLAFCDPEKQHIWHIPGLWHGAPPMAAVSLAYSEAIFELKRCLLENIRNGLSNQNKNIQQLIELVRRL
UniProt Q93015: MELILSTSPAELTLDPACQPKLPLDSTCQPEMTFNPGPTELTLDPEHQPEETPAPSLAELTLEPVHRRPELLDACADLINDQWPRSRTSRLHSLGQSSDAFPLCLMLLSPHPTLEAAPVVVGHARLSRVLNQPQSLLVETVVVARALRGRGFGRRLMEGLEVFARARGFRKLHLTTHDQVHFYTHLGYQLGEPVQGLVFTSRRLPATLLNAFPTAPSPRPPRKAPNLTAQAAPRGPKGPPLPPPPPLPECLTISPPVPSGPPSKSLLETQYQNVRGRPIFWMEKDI
UniProt Q92766: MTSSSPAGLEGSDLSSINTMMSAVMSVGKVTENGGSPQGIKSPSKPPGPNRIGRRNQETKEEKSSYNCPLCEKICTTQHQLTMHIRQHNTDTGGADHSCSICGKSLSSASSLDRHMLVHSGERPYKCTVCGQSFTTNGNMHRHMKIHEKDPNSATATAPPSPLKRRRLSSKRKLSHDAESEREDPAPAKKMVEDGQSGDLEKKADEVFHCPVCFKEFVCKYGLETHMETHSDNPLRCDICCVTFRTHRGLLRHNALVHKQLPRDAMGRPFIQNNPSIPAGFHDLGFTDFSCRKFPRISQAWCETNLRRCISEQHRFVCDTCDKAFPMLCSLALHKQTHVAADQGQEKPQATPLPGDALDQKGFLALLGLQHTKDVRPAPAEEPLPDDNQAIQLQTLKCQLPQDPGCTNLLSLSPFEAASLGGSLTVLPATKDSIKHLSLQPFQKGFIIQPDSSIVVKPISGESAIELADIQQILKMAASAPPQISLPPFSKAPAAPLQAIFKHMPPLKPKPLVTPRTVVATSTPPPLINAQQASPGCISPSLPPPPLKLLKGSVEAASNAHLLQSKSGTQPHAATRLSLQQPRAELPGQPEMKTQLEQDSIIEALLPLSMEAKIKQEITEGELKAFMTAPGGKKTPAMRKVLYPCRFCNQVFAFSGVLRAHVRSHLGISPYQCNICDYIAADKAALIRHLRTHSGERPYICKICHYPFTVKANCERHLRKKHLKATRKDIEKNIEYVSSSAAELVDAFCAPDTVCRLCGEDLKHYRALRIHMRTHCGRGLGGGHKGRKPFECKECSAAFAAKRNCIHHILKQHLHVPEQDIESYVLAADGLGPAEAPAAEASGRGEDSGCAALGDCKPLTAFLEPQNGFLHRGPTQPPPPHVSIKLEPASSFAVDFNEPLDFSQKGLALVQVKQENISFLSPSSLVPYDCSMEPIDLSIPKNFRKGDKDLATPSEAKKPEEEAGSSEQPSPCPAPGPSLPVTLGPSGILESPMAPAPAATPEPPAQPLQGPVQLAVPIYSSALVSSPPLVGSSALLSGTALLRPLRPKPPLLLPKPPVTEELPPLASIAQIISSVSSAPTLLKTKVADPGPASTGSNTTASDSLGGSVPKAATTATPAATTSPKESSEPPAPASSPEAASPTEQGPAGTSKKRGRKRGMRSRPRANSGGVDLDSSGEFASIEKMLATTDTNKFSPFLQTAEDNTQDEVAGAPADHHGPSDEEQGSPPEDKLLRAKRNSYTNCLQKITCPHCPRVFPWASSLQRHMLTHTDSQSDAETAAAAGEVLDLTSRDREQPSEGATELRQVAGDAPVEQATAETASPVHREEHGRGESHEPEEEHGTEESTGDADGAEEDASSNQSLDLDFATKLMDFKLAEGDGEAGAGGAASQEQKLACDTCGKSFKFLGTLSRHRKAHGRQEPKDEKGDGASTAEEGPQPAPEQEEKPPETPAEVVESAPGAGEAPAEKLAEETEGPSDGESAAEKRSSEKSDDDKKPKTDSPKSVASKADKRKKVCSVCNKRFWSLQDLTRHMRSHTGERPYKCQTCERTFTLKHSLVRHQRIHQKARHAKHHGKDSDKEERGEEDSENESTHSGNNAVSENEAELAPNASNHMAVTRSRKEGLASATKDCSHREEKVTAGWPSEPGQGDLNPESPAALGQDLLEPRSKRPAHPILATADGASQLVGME
UniProt Q8TCD1: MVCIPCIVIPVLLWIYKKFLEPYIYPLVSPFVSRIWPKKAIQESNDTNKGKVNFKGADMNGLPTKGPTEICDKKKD
UniProt Q8WU90: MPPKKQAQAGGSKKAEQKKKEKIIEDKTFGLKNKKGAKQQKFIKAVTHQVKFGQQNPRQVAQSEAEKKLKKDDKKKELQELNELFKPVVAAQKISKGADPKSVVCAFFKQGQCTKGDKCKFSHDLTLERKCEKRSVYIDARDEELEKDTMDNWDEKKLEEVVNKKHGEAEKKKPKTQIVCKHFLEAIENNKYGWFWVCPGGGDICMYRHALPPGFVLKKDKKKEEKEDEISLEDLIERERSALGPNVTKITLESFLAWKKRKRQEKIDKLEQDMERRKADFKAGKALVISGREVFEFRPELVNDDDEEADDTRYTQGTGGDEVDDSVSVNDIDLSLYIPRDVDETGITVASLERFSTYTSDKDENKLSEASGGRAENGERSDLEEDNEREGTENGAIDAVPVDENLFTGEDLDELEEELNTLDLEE
UniProt Q92622: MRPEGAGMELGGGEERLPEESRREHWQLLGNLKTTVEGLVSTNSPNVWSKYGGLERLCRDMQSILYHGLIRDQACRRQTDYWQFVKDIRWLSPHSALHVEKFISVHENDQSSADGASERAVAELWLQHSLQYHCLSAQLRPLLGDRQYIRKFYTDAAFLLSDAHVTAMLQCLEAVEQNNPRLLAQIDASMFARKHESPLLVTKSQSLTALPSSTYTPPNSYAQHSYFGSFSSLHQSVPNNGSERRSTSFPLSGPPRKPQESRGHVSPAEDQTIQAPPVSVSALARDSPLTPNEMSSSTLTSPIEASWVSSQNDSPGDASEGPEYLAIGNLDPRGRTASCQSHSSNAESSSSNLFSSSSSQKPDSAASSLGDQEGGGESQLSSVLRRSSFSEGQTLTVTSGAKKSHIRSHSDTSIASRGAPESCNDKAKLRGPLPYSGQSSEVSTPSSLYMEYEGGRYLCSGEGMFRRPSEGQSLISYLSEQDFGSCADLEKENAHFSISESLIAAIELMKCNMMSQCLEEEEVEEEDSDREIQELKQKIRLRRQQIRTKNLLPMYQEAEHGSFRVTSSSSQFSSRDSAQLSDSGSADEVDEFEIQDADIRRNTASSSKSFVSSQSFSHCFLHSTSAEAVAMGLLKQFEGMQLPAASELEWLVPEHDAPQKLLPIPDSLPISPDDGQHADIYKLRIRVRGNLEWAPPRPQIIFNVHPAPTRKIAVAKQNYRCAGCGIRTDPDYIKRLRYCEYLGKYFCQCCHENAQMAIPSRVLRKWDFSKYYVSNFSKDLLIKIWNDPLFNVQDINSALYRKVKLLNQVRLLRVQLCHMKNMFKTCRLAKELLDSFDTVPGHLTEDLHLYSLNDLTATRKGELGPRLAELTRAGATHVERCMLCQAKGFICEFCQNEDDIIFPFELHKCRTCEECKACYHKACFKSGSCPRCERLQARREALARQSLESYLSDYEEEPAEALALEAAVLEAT
UniProt Q8TCZ2: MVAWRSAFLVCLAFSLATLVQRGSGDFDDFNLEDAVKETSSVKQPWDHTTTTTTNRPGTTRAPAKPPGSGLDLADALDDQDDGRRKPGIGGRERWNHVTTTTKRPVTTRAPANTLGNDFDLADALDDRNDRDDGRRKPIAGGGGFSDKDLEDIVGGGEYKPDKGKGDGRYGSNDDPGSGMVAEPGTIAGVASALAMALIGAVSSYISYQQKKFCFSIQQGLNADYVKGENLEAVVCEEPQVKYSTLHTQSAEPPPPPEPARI
UniProt Q969P0: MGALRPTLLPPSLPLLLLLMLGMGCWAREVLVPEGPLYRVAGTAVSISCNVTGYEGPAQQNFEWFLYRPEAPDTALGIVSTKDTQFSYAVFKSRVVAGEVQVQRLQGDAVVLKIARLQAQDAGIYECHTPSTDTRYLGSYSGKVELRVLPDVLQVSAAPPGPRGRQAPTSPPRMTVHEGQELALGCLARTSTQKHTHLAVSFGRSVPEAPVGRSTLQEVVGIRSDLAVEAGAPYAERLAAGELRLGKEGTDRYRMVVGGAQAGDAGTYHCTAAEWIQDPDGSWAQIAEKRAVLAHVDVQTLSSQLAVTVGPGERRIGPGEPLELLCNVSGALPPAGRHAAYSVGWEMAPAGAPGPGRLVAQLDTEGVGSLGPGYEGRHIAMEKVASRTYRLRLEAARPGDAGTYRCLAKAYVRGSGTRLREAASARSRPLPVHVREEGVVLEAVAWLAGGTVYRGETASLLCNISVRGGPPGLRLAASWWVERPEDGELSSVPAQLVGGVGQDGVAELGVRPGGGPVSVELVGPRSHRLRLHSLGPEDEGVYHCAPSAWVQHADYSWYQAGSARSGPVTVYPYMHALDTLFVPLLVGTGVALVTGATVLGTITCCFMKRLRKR
UniProt Q96AB6: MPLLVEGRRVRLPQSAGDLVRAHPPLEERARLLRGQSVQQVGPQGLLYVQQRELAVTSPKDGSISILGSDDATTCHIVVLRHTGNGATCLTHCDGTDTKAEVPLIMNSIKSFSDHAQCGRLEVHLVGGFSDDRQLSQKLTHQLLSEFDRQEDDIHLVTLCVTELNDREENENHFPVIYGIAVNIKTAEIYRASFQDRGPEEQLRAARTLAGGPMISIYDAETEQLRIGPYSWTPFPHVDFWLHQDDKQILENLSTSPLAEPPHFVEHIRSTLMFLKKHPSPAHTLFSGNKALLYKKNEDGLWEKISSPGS
UniProt Q8WXF1: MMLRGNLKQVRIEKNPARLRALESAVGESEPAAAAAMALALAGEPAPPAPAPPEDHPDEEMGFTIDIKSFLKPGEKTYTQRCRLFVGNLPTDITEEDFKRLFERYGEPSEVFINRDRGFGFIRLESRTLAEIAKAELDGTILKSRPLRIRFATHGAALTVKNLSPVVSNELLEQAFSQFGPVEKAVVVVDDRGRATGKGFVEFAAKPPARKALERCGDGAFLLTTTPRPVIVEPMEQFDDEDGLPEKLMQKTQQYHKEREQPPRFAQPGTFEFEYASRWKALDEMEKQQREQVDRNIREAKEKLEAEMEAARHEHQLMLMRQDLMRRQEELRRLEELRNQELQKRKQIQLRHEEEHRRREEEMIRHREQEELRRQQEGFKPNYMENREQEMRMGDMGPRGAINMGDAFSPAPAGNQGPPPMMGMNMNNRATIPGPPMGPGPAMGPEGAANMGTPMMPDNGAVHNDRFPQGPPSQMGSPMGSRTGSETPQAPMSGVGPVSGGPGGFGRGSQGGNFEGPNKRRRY
UniProt Q92575: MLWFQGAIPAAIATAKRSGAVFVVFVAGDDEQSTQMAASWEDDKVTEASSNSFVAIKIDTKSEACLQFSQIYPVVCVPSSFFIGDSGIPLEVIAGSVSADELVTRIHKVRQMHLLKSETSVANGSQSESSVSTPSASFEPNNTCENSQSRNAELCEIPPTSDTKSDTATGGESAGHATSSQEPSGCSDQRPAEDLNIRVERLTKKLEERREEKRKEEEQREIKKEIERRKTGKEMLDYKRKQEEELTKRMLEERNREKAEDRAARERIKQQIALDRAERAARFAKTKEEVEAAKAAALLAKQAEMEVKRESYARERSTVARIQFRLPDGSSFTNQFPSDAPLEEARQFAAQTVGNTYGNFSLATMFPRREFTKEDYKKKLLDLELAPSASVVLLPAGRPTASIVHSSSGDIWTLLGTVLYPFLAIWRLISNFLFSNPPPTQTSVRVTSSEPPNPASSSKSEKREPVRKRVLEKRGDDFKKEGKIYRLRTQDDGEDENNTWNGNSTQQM

Target	NP40-soluble protein abundance
SPRYD4 (UniProt Q8WW59)	0.995 ± 0.19
UniProt Q8TCY9	1.04 ± 0.084
ZKSCAN4 (UniProt Q969J2)	1.03 ± 0.1
RTF1 (UniProt Q92541)	0.914 ± 0.054
UniProt Q92845 and related entries	0.992 ± 0.07
UniProt Q93015 and related entries	0.962 ± 0.05
ERGIC1 (UniProt Q969X5)	1.05 ± 0.12
PPP1R13L (UniProt Q8WUF5)	1.04 ± 0.054
DPF3 (UniProt Q92784)	1.01 ± 0.067
MRPL24 (UniProt Q96A35)	1.05 ± 0.058
UniProt Q92766 and related entries	1.07 ± 0.044
C18orf32 (UniProt Q8TCD1)	0.962 ± 0.16
ZC3H15 (UniProt Q8WU90)	0.965 ± 0.036
ITFG2 (UniProt Q969R8)	1 ± 0.035
UniProt Q92622 and related entries	0.936 ± 0.078
UniProt Q8TBX8 and related entries	1.05 ± 0.047
ERCC4 (UniProt Q92889)	1.03 ± 0.053
UniProt Q8TCZ2 and related entries	0.82 ± 0.044
UniProt Q969P0 and related entries	0.981 ± 0.02
STYX (UniProt Q8WUJ0)	1.1 ± 0.15
NTAN1 (UniProt Q96AB6)	1.08 ± 0.041
PSPC1 (UniProt Q8WXF1)	1.01 ± 0.048
UniProt Q8WVM7 and related entries	1.03 ± 0.083
UniProt Q8TEX9 and related entries	0.935 ± 0.087
UBXN4 (UniProt Q92575)	0.97 ± 0.056
NSUN6 (UniProt Q8TEA1)	1.01 ± 0.037
UniProt Q96AE7-2|Q96AE7	1.05 ± 0.2

Rewritten comma-delimited: entries from further up.
Target,NP40-soluble protein abundance
UniProt Q8WVM7 and related entries,1.03 ± 0.083
UniProt Q8TEX9 and related entries,0.935 ± 0.087
